Data as given in the supplement of paper PMC10849652.
The other results are listed elsewhere or left out.

Protein sequences, listed by entry. Tags and fused reporters are not part of them. Lines headed by an entry give the natural chain unless they say otherwise; changes in a name come on top.
UniProt Q9Y3D8, whole entry, looked up: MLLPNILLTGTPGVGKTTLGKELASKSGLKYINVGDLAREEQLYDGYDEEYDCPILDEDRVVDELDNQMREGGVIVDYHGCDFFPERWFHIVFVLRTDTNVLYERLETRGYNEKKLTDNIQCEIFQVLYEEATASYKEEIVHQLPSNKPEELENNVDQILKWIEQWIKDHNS
UniProt O00116: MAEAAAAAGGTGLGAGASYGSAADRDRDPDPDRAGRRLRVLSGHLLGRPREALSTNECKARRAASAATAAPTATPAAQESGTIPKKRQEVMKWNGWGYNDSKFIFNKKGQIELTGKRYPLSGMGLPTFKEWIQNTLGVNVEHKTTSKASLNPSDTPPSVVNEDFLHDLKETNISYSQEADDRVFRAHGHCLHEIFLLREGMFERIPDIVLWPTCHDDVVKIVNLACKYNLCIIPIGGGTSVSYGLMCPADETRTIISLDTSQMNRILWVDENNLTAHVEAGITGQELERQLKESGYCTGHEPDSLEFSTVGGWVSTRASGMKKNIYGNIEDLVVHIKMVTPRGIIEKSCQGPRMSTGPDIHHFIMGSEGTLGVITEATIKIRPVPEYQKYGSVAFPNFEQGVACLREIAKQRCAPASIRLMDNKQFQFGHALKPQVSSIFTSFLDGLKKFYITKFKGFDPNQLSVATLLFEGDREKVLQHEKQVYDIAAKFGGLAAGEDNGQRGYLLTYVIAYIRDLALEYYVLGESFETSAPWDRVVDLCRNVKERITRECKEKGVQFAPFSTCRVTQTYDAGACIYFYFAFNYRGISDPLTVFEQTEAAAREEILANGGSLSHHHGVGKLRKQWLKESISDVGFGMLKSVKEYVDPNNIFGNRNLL
UniProt O43865, whole entry, looked up: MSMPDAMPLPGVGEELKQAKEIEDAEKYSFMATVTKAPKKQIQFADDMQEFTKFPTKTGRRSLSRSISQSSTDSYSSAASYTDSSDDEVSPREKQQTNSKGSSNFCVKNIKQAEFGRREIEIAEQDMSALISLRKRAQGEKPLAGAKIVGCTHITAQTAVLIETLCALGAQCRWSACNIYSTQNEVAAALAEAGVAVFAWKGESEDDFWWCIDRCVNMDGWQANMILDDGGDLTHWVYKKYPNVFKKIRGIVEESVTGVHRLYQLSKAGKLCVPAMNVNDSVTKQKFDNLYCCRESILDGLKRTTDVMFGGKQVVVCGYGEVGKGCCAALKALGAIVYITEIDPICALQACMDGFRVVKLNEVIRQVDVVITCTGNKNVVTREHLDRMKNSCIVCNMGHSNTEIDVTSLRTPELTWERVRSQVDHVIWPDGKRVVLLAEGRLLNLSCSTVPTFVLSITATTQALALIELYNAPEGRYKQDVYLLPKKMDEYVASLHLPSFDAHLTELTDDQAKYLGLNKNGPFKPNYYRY
UniProt Q9H8T0: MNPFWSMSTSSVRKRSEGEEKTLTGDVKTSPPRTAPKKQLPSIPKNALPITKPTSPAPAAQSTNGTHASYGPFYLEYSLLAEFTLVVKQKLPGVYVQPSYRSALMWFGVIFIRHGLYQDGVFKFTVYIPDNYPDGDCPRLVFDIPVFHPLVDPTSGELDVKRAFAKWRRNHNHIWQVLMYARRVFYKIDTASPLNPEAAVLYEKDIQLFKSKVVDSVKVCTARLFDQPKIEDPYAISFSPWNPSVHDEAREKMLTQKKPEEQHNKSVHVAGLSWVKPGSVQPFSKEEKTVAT
UniProt O00468: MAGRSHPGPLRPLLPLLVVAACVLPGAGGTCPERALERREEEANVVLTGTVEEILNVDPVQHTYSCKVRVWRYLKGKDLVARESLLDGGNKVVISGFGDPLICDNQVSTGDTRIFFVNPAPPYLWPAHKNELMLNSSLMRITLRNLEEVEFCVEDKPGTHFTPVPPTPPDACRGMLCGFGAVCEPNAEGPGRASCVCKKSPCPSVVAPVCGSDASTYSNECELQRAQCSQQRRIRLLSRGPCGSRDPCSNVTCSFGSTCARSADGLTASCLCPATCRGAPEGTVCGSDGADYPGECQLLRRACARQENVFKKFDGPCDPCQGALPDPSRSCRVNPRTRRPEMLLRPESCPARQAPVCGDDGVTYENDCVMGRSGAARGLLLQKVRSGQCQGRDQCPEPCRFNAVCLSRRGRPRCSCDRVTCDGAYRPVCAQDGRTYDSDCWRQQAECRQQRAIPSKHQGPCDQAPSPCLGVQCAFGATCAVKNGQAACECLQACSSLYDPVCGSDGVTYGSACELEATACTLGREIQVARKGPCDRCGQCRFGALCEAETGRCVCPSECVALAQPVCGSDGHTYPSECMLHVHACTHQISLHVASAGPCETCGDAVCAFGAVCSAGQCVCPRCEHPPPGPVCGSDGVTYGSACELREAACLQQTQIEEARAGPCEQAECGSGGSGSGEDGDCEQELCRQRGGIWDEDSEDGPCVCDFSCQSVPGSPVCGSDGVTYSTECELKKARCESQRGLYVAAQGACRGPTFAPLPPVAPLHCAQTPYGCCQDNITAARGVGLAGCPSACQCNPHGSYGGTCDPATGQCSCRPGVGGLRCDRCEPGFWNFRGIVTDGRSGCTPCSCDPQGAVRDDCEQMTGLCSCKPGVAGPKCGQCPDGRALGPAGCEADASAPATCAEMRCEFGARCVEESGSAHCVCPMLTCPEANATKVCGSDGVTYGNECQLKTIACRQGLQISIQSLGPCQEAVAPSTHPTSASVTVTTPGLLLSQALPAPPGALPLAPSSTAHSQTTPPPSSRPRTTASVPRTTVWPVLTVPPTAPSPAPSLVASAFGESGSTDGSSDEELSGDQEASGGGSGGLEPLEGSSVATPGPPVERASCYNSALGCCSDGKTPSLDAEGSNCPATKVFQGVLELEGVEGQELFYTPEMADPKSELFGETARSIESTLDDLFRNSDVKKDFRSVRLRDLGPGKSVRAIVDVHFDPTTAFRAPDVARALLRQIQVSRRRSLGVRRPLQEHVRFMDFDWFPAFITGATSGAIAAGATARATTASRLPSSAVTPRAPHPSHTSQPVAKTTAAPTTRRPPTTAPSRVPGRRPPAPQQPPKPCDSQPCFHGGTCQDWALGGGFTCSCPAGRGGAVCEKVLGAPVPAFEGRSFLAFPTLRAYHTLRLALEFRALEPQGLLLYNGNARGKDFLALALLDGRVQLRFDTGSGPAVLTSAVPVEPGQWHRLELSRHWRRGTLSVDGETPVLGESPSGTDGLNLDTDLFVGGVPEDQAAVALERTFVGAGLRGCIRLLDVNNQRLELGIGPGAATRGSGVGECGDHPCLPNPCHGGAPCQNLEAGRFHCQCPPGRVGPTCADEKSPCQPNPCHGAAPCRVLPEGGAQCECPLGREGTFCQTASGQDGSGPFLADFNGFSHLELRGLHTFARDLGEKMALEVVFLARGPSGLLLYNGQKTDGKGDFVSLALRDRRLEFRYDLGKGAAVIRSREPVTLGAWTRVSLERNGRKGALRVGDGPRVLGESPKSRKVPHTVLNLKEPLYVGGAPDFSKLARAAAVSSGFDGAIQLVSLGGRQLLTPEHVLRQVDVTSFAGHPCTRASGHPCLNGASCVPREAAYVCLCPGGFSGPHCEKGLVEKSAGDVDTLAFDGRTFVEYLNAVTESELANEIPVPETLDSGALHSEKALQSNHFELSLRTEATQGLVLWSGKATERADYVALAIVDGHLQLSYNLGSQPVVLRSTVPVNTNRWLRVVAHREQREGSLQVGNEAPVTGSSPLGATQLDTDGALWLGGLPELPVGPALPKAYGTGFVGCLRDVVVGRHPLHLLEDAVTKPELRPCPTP
UniProt Q9UKA4: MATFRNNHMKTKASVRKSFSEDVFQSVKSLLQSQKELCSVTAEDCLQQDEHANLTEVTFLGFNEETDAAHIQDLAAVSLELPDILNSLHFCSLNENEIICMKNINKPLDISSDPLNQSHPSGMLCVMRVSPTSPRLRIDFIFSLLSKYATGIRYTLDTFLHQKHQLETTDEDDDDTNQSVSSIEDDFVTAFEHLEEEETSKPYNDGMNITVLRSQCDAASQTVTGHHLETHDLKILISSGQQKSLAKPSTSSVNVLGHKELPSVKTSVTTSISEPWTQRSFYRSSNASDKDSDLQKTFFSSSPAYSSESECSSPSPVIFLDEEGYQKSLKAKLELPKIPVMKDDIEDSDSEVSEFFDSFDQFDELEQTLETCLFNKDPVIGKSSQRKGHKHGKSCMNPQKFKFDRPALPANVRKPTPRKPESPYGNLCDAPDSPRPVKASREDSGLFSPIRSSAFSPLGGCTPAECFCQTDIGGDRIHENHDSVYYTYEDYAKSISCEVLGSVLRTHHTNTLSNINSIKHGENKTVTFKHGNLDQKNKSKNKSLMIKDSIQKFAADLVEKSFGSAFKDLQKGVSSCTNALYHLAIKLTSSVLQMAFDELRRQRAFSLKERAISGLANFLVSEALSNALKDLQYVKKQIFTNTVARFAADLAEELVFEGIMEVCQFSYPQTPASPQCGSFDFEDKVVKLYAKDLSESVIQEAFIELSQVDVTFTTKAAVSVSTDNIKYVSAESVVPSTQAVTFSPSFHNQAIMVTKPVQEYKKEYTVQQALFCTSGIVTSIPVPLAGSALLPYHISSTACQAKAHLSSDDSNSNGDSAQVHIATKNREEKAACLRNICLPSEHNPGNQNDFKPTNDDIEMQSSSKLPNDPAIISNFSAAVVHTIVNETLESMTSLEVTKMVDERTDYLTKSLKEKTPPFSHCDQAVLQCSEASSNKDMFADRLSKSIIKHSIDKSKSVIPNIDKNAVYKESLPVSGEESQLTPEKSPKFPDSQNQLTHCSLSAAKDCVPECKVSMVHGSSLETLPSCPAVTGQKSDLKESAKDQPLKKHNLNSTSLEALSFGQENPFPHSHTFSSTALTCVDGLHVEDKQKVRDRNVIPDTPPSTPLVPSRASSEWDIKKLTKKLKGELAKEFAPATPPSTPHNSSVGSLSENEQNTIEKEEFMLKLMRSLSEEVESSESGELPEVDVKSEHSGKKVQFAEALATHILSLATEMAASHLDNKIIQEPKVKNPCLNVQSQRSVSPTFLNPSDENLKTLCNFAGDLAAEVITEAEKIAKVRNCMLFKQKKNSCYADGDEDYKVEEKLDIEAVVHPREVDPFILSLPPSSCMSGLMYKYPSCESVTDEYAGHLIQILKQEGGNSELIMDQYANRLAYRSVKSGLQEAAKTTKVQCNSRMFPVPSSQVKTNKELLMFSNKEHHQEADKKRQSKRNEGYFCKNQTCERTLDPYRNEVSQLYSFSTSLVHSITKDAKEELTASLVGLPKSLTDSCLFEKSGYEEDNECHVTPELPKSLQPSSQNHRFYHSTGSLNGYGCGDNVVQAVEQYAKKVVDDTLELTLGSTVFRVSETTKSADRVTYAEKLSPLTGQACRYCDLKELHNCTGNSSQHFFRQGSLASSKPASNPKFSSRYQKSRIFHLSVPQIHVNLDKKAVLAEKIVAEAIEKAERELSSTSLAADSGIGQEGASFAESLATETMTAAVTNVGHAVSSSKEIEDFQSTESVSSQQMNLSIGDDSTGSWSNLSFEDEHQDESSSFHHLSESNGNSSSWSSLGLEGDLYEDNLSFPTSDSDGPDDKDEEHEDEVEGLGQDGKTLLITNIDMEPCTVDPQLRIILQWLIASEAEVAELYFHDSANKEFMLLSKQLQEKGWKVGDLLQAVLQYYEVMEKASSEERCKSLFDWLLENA
UniProt Q9UHX3: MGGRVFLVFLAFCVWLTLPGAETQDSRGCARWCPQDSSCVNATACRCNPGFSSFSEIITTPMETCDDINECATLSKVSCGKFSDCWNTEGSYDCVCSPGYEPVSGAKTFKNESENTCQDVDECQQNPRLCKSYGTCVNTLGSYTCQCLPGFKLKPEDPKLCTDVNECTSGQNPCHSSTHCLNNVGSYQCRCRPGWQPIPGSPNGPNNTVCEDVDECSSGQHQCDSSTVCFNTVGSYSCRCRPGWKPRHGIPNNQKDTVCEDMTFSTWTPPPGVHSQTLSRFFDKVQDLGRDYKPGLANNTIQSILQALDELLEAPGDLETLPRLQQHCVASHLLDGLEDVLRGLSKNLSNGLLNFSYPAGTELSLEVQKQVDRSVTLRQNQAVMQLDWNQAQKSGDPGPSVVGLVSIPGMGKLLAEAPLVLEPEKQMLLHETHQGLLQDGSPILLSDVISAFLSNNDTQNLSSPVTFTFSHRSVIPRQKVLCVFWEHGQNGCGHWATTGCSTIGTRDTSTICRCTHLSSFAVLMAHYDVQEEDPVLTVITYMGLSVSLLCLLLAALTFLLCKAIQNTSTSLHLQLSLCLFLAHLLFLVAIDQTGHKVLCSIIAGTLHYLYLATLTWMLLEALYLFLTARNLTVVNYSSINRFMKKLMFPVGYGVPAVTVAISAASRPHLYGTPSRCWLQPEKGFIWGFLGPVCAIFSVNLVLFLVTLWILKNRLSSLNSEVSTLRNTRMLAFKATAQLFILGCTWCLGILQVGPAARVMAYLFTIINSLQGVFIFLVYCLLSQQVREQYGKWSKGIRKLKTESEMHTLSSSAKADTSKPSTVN

Key:
Test in all cases: log2 fold change, soluble protein after heating vs DMSO (PISA); higher = thermal stabilisation; K562 cells, 10 uM, 30 min; active = over 0.2 and 3.5 SD of the protein, either way, in both replicates (recomputed)
[1] = compound: CS(=O)(=O)c1ccc(-c2cnc(N)c(C(=O)Nc3ccccc3)n2)cc1
How it was run: (§1)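 Values are thermal stability changes relative to control samples and are taken from duplicates. They are stated as log2 fold changes. Before quantification by TMTpro 16plex LC-MS/MS with equalised channel sums, K562 cells at 2×10^6 cells/mL were treated with 10 μM compound for 30 min, heated in aliquots for 3 min across 48°C-58°C, pooled, extracted in PBS with 0.5% NP-40 at 4°C, and centrifuged at 21,000xg for 90 min to give the soluble supernatant.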

crizotinib = compound: C[C@@H](Oc1cc(-c2cnn(C3CCNCC3)c2)cnc1N)c1c(Cl)ccc(F)c1Cl [crizotinib]
How it was run: as §1

[2] = compound: C[C@@H]1COCCN1C2=NC(=NC(=C2)C3(CC3)S(=O)(=O)C)C4=C5C=CNC5=CC=C4
How it was run: as §1

[3] = compound: C[C@H](C1=CC=C(C=C1)C(=O)NC2=C3C=CNC3=NC=C2)N
How it was run: as §1

gandotinib = compound: Cc1cc(Nc2cc(CN3CCOCC3)c3nc(C)c(Cc4ccc(Cl)cc4F)n3n2)n[nH]1 [gandotinib]
How it was run: as §1

[4] = compound: Cc1cc(SCc2sc(-c3ccc(C(F)(F)F)cc3)nc2C)ccc1OCC(=O)O
How it was run: as §1

doramapimod = compound: Cc1ccc(-n2nc(C(C)(C)C)cc2NC(=O)Nc2ccc(OCCN3CCOCC3)c3ccccc23)cc1 [doramapimod]
How it was run: as §1

ispinesib = compound: Cc1ccc(C(=O)N(CCCN)[C@@H](c2nc3cc(Cl)ccc3c(=O)n2Cc2ccccc2)C(C)C)cc1 [ispinesib]
How it was run: as §1

duvelisib = compound: C[C@H](Nc1ncnc2nc[nH]c12)c1cc2cccc(Cl)c2c(=O)n1-c1ccccc1 [duvelisib]
How it was run: as §1

tozasertib = compound: Cc1cc(Nc2cc(N3CCN(C)CC3)nc(Sc3ccc(NC(=O)C4CC4)cc3)n2)n[nH]1 [tozasertib]
How it was run: as §1

Target | log2 fold change [1] | log2 fold change (crizotinib) | log2 fold change [2] | log2 fold change [3] | log2 fold change (gandotinib) | log2 fold change [4] | log2 fold change (doramapimod) | log2 fold change (ispinesib) | log2 fold change (duvelisib) | log2 fold change (tozasertib)
AK6 (UniProt Q9Y3D8) | inactive: 0.151 | inactive: -0.156 | inactive: 0.175 | inactive: 0.115 | inactive: -0.049 | inactive: 0.065 | inactive: 0.008 | inactive: -0.085 | – | –
ADPRHL2 (UniProt Q9NX46) | inactive: 0.052 | inactive: 0.092 | inactive: 0.045 | inactive: -0.072 | inactive: 0.07 | inactive: 0.039 | inactive: -0.017 | active: 0.303 | – | –
ALDH2 (UniProt P05091) | inactive: -0.047 | inactive: -0.044 | inactive: 0.051 | inactive: -0.038 | inactive: -0.088 | inactive: 0.022 | inactive: 0.033 | inactive: -0.023 | – | –
AGPS (UniProt O00116) | inactive: 0.016 | inactive: -0.038 | inactive: 0.048 | inactive: -0.053 | inactive: -0.047 | inactive: 0.19 | inactive: 0.018 | inactive: 0.015 | – | –
ALDH9A1 isoform 3 (UniProt P49189) | inactive: -0.002 | inactive: -0.002 | inactive: 0.027 | inactive: -0.042 | inactive: 0.063 | inactive: -0.002 | inactive: -0.004 | inactive: 0.006 | – | –
AHCYL1 (UniProt O43865) | inactive: 0.097 | inactive: 0.018 | inactive: 0.038 | inactive: 0.02 | inactive: 0.02 | inactive: -0.036 | inactive: -0.045 | inactive: -0.015 | – | –
AFDN isoform 5 (UniProt P55196) | inactive: 0.027 | inactive: -0.154 | inactive: 0.04 | inactive: -0.094 | inactive: -0.159 | inactive: 0.063 | inactive: 0.009 | inactive: -0.002 | – | –
AMFR (UniProt Q9UKV5) | inactive: -0.008 | inactive: -0.04 | inactive: 0.018 | inactive: -0.034 | inactive: 0.012 | inactive: 0.071 | inactive: 0.057 | active: -0.331 | – | –
ADD3 isoform 2 (UniProt Q9UEY8) | inactive: -0.032 | inactive: 0.028 | inactive: 0.101 | inactive: -0.248 | inactive: -0.211 | inactive: 0.089 | inactive: -0.074 | inactive: 0.036 | – | –
ADD3 (UniProt Q9UEY8) | inactive: 0 | inactive: 0.023 | inactive: 0.018 | inactive: -0.079 | inactive: -0.029 | inactive: -0.059 | inactive: 0.016 | inactive: 0.061 | – | –
ADH1A (UniProt P07327) | inactive: -0.242 | inactive: 0.064 | – | – | – | – | inactive: -0.005 | – | – | –
AKTIP isoform 2 (UniProt Q9H8T0) | inactive: -0.052 | – | inactive: 0.003 | – | – | – | – | – | – | –
AKNA (UniProt Q7Z591) | inactive: -0.015 | – | – | inactive: -0.02 | – | – | – | – | – | –
ALDH1B1 (UniProt P30837) | inactive: 0.054 | inactive: -0.067 | inactive: 0.12 | inactive: -0.068 | inactive: -0.025 | inactive: 0.008 | inactive: -0.006 | inactive: 0.019 | – | –
AFG1L (UniProt Q8WV93) | inactive: -0.04 | inactive: -0.027 | inactive: 0.074 | inactive: 0.001 | – | inactive: -0.019 | inactive: 0.002 | inactive: -0.253 | – | –
AIP (UniProt O00170) | inactive: 0.031 | inactive: 0.039 | inactive: 0.075 | inactive: -0.055 | inactive: -0.058 | inactive: 0.038 | inactive: -0.024 | inactive: 0.011 | – | –
AGAP3 isoform 4 (UniProt Q96P47) | inactive: -0.041 | inactive: -0.231 | inactive: -0.133 | inactive: 0.07 | – | – | inactive: 0.125 | inactive: -0.069 | – | –

Target | log2 fold change [1] | log2 fold change (crizotinib) | log2 fold change [2] | log2 fold change [3] | log2 fold change (gandotinib) | log2 fold change [4] | log2 fold change (doramapimod) | log2 fold change (ispinesib) | log2 fold change (duvelisib) | log2 fold change (tozasertib)
ALDOB (UniProt P05062) | inactive: 0.01 | – | inactive: -0.165 | – | – | – | – | – | – | –
ADIPOR1 (UniProt Q96A54) | inactive: 0.004 | inactive: 0.08 | inactive: -0.191 | – | – | inactive: 0.074 | inactive: -0.154 | inactive: -0.128 | inactive: 0.086 | –
AGRN (UniProt O00468) | inactive: -0.078 | inactive: -0.01 | inactive: -0.073 | inactive: -0.021 | inactive: -0.012 | inactive: 0.24 | inactive: 0.062 | inactive: 0.009 | – | –
ADCY3 (UniProt O60266) | inactive: 0.185 | inactive: -0.102 | – | inactive: 0.029 | inactive: -0.034 | inactive: -0.156 | inactive: 0.105 | inactive: -0.119 | inactive: 0.014 | inactive: 0.02
ALDH7A1 (UniProt P49419) | inactive: -0.093 | – | inactive: -0.079 | – | inactive: 0.033 | – | – | – | – | –
ALDH2 isoform 2 (UniProt P05091) | inactive: 0.209 | – | inactive: 0.244 | – | inactive: -0.027 | – | – | inactive: -0.214 | – | –
ADD2 (UniProt P35612) | inactive: 0.021 | inactive: -0.005 | inactive: 0.022 | inactive: -0.052 | inactive: -0.042 | inactive: -0.029 | inactive: 0.016 | inactive: 0.088 | – | –
ADCK5 (UniProt Q3MIX3) | inactive: -0.029 | inactive: 0.113 | inactive: -0.409 | – | – | – | inactive: 0.086 | inactive: -0.134 | – | inactive: -0.24
ALG11 (UniProt Q2TAA5) | inactive: 0.142 | inactive: 0.007 | inactive: 0.103 | inactive: -0.04 | inactive: -0.129 | inactive: 0.015 | inactive: 0.038 | inactive: 0.029 | – | –
ALAS1 (UniProt P13196) | inactive: 0.116 | – | inactive: 0.111 | – | inactive: -0.074 | – | – | – | – | –
AKAP11 (UniProt Q9UKA4) | inactive: 0.06 | inactive: 0.116 | – | inactive: 0.315 | inactive: 0.062 | – | inactive: -0.1 | – | – | –
ADGRE2 (UniProt Q9UHX3) | inactive: -0.034 | inactive: 0.04 | inactive: 0.151 | – | inactive: 0.022 | – | inactive: 0.051 | inactive: 0.216 | – | inactive: -0.02
ADK (UniProt P55263) | inactive: 0.144 | inactive: 0.275 | inactive: 0.034 | inactive: -0.105 | inactive: 0.276 | inactive: -0.061 | inactive: -0.039 | inactive: 0.112 | – | –
ALDH9A1 (UniProt P49189) | inactive: 0.084 | – | inactive: 0.061 | inactive: -0.116 | active: 0.356 | inactive: 0.045 | – | inactive: -0.243 | – | –
AMDHD2 (UniProt Q9Y303) | inactive: 0.11 | – | – | inactive: -0.145 | inactive: 0.027 | inactive: 0.088 | – | – | inactive: -0.047 | inactive: -0.084
AMN1 (UniProt Q8IY45) | inactive: 0.231 | – | inactive: 0.298 | inactive: -0.234 | inactive: 0.076 | inactive: -0.08 | – | – | inactive: 0.193 | inactive: -0.06

Shown tab-delimited: part of the list above
Target	log2 fold change [1]	log2 fold change (crizotinib)	log2 fold change [2]	log2 fold change [3]	log2 fold change (gandotinib)	log2 fold change [4]	log2 fold change (doramapimod)	log2 fold change (ispinesib)	log2 fold change (duvelisib)	log2 fold change (tozasertib)
AHCYL1 (UniProt O43865)	inactive: 0.097	inactive: 0.018	inactive: 0.038	inactive: 0.02	inactive: 0.02	inactive: -0.036	inactive: -0.045	inactive: -0.015	–	–
AFDN isoform 5 (UniProt P55196)	inactive: 0.027	inactive: -0.154	inactive: 0.04	inactive: -0.094	inactive: -0.159	inactive: 0.063	inactive: 0.009	inactive: -0.002	–	–
